# PMC6925144, “A prospective compound screening contest identified broader inhibitors for Sirtuin 1” (Scientific Reports, 2019)
# The chains behind the UniProt entries cited, without tags or fusion partners. Residues count along the entry.
# UniProt Q96EB6, 2-747 limits assumed: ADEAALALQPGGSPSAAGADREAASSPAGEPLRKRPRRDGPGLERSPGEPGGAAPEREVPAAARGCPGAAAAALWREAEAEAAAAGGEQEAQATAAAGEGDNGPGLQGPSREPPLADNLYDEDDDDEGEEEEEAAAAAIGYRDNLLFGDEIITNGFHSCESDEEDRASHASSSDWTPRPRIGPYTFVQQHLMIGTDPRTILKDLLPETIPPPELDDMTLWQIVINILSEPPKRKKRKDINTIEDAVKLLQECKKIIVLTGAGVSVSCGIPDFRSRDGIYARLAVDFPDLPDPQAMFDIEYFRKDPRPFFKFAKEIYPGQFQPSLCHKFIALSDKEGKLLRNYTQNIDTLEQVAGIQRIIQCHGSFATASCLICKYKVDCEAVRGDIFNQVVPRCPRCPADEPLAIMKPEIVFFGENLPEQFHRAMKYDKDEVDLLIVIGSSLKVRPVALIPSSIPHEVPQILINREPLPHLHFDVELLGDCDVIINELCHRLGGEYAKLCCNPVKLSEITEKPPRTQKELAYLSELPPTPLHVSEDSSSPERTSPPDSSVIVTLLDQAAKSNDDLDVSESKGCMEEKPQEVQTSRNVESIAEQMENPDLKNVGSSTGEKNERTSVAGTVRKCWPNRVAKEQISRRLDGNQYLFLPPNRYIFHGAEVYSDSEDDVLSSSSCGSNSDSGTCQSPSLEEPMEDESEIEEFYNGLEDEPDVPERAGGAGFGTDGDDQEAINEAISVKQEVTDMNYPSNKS
# In all, about 3,200 compounds were measured (“TSA(with NAD+) / Primary screening (TSA) / delta Tm (K)”: median about -0.04, highest 2% from about 0.37 on). Some of the results follow.
# Molecular target: NAD-dependent deacetylase Sirtuin 1 (human, UniProt Q96EB6)
# Assay: primary screen, delta tm
# Parameters: single well (n = 1, as 'the same TSA')
# Details: 10 µM
# Method: A total of 3,192 compounds extracted from the proposed lists were first screened by thermal shift assay (TSA), which determined a melting temperature shift (ΔTm) of Sirtuin 1 upon the addition of a test compound at a concentration of 10 µM (n = 1) with primary hit criteria of ΔTm > 0.45 K or ΔTm < −1.5 K. Primary hits (48 compounds) were retested in the same assay at three concentrations (5, 10, 20 µM, n = 4) for hit confirmation and for dose-dependency check. Secondary hits (41 compounds) were checked their selectivity for Sirtuin 1 based on counterscreening on unrelated protein targets (bovine carbonic anhydrase (CA) and recombinant SH2 domain of hABL1 kinase (ABL1)) at three different concentrations (5, 10, 20 µM, n = 4), which yielded 38 hit compounds, hereafter referred to as TSA hits. The TSA screening above was conducted in the absence of NAD+. As noted, the structure of Sirtuin 1 is different in the presence of NAD+ and substrate. The chemical profile of TSA hits found from the different conditions could be different. […] As a result, 39 TSA hits were found.
row,SMILES,TSA(with NAD+) / Primary screening (TSA) / delta Tm (K)
1,O=C(O)CCn1cc(C=C2C(=O)NC(=O)NC2=O)c(-c2ccc(Br)cc2)n1,-0.26 K
2,O=C(OCC(=O)C12CC3CC(CC(C3)C1)C2)c1ccc(N2C(=O)c3ccccc3C2=O)cc1,0.06 K
3,CCCNC(=O)Nc1ccc(OC)cc1,-0.08 K
4,O=C(O)CC(O)(CC(=O)O)C(=O)O,0.09 K
5,COc1ccccc1C1C(C(=O)/C=C/c2ccco2)=C(O)C(=O)N1CCCN1CCOCC1 (centres unmarked),-0.18 K
6,NC(=O)C1CCCN(c2ncnc3cc(-c4ccc(Br)cc4)sc23)C1 (centres unmarked),-0.11 K
7,CCCOc1ccc(/C=c2/s/c(=C\C(=O)OCC)n(CC(=O)NCC3CCCO3)c2=O)cc1OCC (centres unmarked),0.07 K
8,Cc1nn(Cc2ccccc2)c(Cl)c1/C=C/C(=O)OC(C)C(=O)Nc1ncc(Cl)cc1Cl (centres unmarked),0.01 K
9,Cc1ccc2[nH]c3c(c2c1)CC(C)(C)CC3,-0.01 K
10,CC(O)CCCN (centres unmarked),-0.11 K
11,O=C(COC(=O)C1=COCCO1)NCCc1c[nH]c2ccccc12,-0.18 K
12,O=C(Nc1cccc(C(F)(F)F)c1)c1cccc(NC(=O)c2cc3c(cc2[N+](=O)[O-])OCCO3)c1,0.38 K
13,CCCNC(=O)CNc1ccccc1OC(F)F,-0.11 K
14,COc1cc(CN(C)C(=O)Cc2ccc3c(c2)OCCO3)ccc1OCc1ccccc1,-0.14 K
15,CCCCn1c(N)c(NC)c(=O)[nH]c1=O,-0.05 K
16,CC(C)Cc1cc(NC(=O)Cc2coc(-c3cccs3)n2)n(C)n1,-0.09 K
17,CN(C)C(=O)c1ccc2[nH]c3c(c2c1)CCCCC3,-0.03 K
18,COC(=O)C(C(=O)c1ccccc1)=C1Nc2ccccc2N1,-0.16 K
19,NC(=O)c1cccc2c1CCCN2C(=O)CCCn1c(=O)oc2ccccc21,-0.21 K
20,COC(=O)c1ccc(C(=O)NNC(=O)Cc2cn3ccsc3n2)cc1,0.09 K
21,CN(c1ccccc1)S(=O)(=O)c1cccc(NC(=O)c2cc(Cl)nc3ccccc23)c1,0.16 K
22,Cc1c(C(=O)O)c(=O)oc2cc(F)ccc12,-0.14 K
23,O=C(O)CCCCNC(=O)OCc1ccccc1,-0.11 K
24,Cc1[nH]c2ccccc2c1CC(=O)Nc1cccc(-c2noc(=O)[nH]2)c1,-0.23 K
25,O=C(Nc1ccccc1)c1ccc(CNC(c2ccccc2)c2ccccc2)cc1,0.15 K
26,CCNC(=O)C(C)NC(=O)c1cccc(S(=O)(=O)N(C)c2ccc(C)cc2)c1 (centres unmarked),0.03 K

# Some of the entries above in a different format:
row	SMILES	TSA(with NAD+) / Primary screening (TSA) / delta Tm (K)
8	Cc1nn(Cc2ccccc2)c(Cl)c1/C=C/C(=O)OC(C)C(=O)Nc1ncc(Cl)cc1Cl (centres unmarked)	0.01 K
14	COc1cc(CN(C)C(=O)Cc2ccc3c(c2)OCCO3)ccc1OCc1ccccc1	-0.14 K
